No constants are given. Whether binding was seen depends on the method and setting. In cells and extracts the contact can be indirect. Binding can be weak; no strength is given. Sequences can lack the tags named with a protein.
Molecular target: T1, GST-tagged RAPSYN (expressed in HEK293T cells) (human) (UniProt Q13702)
T1 sequence: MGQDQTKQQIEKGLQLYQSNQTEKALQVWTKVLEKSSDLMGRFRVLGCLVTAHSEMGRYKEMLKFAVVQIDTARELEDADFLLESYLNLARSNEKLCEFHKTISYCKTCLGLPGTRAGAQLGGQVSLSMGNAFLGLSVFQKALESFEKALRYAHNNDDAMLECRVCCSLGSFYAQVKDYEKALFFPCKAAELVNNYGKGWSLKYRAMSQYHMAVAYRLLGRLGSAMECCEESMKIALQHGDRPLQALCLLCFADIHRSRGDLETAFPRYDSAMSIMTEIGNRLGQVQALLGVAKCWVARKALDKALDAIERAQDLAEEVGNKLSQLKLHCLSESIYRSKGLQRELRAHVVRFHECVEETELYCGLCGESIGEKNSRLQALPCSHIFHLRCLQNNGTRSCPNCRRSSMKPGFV
Experiment: co-IP; HEK293T cells transfected with His-tagged BCR-ABL (full-length or truncated) and GST-tagged RAPSYN; immunoprecipitation of His or GST, immunoblots of GST and His; NP-40 lysis buffer

- binding: binds
Substance: His-tagged truncated BCR-ABL Δ1 (aa 1–927) (human) (domain or fragment)

Reference: PMC11168747
